Results are given in words; binding and its absence hold for the method and conditions named. In cells and extracts the contact can be indirect. A yes stands for co-enrichment or nearness to the bait. Other partners may have been found.
Target: survivin (human (endogenous in THP1)) (UniProt O15392)
Test: affinity purification with mass spectrometry

Chains of the proteins cited; added tags and fusions are not shown.
UniProt O15392: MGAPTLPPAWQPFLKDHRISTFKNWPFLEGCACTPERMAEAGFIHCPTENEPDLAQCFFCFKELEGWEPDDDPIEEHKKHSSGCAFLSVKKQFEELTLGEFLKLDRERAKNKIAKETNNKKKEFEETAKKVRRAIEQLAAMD
UniProt Q86U86: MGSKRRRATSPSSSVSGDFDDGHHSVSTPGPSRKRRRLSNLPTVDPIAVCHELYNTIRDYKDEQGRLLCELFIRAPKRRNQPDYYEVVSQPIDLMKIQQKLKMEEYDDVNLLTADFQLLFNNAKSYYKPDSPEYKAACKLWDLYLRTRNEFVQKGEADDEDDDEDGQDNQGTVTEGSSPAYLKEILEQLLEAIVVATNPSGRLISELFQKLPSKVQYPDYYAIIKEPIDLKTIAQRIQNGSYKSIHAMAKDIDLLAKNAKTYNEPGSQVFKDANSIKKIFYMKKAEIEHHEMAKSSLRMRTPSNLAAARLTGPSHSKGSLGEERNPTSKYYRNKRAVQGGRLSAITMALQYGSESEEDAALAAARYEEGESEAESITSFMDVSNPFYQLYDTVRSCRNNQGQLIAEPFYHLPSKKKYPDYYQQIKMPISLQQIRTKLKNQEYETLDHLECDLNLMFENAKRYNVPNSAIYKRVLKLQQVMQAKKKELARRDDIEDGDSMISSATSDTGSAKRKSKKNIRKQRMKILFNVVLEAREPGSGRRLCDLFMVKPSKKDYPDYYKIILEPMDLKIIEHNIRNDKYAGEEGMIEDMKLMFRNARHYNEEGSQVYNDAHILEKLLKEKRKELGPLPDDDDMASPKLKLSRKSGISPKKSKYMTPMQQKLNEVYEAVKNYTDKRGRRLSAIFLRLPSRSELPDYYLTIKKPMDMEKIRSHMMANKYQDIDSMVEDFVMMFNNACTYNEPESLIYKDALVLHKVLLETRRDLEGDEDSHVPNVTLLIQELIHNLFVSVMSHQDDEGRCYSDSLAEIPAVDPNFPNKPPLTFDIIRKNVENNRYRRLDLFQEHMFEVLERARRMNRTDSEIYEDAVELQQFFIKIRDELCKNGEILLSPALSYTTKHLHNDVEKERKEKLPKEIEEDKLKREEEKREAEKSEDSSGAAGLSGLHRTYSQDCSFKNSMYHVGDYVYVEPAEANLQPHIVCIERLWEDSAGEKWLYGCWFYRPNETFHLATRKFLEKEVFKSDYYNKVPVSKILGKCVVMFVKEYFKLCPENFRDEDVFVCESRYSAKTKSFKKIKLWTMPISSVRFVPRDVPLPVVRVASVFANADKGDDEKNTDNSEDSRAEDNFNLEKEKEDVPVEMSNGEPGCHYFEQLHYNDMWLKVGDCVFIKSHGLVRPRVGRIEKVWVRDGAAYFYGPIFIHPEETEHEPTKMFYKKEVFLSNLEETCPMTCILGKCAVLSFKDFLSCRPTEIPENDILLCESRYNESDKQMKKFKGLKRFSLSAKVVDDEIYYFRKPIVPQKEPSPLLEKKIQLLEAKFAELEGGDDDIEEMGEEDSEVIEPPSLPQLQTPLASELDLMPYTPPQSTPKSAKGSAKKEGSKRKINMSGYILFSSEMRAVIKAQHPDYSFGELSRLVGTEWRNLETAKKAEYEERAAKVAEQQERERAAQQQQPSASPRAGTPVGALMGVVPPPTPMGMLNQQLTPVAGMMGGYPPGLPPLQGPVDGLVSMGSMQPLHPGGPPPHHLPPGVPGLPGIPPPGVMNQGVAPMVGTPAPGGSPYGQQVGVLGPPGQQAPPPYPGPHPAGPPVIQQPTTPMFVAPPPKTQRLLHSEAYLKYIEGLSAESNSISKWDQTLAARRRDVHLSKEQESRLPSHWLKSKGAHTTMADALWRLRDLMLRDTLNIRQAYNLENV
UniProt Q92785: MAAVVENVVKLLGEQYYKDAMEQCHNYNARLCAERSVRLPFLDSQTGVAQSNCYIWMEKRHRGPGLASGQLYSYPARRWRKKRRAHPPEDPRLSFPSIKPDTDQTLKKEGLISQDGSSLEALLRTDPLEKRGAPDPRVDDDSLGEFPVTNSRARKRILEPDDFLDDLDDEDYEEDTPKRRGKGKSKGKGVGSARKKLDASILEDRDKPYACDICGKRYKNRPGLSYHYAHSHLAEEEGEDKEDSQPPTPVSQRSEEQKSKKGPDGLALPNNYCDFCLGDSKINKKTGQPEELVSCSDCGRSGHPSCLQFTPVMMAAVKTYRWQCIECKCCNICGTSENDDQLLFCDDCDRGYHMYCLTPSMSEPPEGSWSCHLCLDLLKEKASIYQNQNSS
UniProt Q8TAQ2: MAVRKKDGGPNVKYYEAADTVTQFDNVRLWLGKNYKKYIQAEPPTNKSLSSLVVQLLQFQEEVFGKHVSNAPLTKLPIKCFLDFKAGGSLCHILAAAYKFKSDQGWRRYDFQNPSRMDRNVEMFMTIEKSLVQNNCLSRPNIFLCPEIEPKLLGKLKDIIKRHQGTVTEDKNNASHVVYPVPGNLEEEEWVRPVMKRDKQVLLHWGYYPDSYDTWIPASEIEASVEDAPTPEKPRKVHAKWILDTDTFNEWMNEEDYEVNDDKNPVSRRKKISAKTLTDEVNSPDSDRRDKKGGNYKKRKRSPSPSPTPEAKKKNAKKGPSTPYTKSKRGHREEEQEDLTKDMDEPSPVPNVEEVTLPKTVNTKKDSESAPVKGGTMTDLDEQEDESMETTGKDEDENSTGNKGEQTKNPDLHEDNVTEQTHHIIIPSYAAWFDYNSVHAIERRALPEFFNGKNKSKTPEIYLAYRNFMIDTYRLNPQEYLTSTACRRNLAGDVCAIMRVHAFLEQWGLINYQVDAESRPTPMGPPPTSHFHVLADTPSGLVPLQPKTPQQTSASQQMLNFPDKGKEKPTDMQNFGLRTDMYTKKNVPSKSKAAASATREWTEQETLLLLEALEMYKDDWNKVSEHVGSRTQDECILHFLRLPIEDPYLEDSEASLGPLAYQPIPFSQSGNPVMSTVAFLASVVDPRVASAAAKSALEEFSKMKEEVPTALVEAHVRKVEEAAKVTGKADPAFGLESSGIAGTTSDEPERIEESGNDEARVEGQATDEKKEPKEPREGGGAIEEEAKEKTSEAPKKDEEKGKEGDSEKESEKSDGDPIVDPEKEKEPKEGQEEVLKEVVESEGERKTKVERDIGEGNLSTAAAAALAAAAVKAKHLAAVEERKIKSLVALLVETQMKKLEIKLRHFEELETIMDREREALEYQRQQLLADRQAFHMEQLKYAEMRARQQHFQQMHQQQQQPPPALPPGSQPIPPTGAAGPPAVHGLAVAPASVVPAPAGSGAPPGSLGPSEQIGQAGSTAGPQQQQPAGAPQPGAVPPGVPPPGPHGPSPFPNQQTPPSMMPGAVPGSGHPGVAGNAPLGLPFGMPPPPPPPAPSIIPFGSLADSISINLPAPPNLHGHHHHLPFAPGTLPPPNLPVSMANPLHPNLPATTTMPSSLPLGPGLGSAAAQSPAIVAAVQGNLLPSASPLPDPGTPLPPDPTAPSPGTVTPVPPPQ
UniProt Q969G3: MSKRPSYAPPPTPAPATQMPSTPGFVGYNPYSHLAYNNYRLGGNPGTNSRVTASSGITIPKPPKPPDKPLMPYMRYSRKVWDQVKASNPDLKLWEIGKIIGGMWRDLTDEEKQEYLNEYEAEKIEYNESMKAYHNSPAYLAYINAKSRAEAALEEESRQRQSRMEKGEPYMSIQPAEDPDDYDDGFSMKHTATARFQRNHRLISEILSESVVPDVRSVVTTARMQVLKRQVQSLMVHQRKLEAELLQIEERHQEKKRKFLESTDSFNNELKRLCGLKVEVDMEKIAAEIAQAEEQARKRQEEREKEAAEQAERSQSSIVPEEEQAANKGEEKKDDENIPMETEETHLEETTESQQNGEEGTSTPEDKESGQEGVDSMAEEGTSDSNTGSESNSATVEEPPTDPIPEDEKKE
UniProt Q92922: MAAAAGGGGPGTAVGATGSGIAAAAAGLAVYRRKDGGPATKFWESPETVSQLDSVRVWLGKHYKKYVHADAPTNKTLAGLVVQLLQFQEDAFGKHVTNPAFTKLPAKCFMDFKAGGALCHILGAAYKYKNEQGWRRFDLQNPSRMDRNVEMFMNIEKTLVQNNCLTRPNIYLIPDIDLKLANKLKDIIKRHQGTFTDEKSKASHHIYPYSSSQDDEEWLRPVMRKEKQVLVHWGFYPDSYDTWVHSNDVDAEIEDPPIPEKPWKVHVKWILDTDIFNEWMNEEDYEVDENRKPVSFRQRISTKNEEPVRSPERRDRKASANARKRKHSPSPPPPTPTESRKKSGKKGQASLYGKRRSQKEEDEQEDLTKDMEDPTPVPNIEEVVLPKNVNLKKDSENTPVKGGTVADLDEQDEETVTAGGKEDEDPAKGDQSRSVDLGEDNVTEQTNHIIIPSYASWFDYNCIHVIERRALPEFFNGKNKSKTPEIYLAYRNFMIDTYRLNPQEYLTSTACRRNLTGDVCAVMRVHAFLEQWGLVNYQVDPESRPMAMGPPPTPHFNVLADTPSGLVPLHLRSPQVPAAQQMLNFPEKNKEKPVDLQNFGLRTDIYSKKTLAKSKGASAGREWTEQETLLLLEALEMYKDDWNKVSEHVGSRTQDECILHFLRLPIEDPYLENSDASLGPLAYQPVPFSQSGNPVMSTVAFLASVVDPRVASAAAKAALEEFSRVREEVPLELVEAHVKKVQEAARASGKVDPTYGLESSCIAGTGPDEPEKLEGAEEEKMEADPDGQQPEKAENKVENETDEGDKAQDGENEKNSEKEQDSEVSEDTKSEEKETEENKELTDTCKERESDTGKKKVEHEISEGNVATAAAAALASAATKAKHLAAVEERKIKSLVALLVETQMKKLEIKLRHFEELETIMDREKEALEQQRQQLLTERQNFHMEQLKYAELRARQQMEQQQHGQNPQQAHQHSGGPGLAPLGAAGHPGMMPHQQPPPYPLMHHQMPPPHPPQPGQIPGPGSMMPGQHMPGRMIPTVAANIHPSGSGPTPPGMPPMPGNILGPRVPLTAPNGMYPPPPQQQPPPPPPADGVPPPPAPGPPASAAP
UniProt P51531: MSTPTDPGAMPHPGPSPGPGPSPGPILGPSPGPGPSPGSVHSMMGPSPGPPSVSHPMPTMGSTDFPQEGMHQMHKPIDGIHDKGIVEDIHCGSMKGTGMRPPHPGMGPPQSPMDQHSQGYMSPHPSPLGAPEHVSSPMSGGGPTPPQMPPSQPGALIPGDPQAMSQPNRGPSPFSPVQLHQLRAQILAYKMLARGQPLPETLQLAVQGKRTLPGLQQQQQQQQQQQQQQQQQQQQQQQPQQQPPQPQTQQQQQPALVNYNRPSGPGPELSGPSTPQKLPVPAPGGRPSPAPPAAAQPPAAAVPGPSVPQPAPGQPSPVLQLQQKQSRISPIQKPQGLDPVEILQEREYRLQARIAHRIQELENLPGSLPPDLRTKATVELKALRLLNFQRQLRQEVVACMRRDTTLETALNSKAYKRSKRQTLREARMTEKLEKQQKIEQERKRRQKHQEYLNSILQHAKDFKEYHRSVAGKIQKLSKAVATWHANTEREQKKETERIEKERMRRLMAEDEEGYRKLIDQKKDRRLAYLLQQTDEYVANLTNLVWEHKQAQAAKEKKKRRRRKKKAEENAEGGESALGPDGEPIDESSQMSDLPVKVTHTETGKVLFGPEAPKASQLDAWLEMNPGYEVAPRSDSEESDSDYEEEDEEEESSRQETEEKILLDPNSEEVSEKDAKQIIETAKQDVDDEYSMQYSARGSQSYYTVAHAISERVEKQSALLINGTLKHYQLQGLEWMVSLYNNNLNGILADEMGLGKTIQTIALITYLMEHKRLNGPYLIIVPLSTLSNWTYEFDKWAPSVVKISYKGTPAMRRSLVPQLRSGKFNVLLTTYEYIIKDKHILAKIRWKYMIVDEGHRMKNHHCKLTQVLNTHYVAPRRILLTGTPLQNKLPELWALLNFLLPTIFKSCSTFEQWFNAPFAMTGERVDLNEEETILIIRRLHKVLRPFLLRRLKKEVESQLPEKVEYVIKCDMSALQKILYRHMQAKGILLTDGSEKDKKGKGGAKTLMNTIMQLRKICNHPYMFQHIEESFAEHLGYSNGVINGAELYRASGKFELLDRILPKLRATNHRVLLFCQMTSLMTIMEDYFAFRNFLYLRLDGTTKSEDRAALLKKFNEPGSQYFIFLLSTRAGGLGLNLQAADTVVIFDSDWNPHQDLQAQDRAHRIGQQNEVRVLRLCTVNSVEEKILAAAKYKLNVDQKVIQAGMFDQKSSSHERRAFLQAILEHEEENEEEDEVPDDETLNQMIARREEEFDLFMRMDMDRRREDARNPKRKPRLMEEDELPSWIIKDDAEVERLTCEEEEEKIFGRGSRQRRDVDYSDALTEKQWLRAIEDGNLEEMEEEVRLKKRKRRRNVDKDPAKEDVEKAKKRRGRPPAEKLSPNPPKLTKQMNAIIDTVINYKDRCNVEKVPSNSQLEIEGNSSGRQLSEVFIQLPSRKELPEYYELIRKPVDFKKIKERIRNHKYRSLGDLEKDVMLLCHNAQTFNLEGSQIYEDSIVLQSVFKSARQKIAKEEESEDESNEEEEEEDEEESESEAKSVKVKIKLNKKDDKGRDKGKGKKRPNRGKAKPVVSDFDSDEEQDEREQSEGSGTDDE

| Substance | binding |
| --- | --- |
| PBRM1 (from UniProt Q86U86 1-1689) | binds |
| SMARCD1 (from UniProt Q96GM5 1-515) | binds |
| SMARCA4 (from UniProt P51532 1-1647) | binds |
| DPF2 (from UniProt Q92785 1-391) | binds |
| SMARCD2 (from UniProt Q92925 1-531) | binds |
| SMARCC2 (from UniProt Q8TAQ2 1-1214) | binds |
| SMARCE1 (from UniProt Q969G3 1-411) | binds |
| SMARCC1 (from UniProt Q92922 1-1105) | binds |
| SMARCA2 (from UniProt P51531 1-1590) | binds |
